Data as given in PubChem BioAssay AID652243 (Drosophila RNAi Screening Center, 2013).

Assay: 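Knock-downs that decrease or increase androgen receptor reporter signal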 (primary screen)
Cells: Drosophila S2R+ cells
Knock-down reagent: long dsRNA against Drosophila genes
Time to read-out: 72 h (48 h, then 24 h hormone)
Treatment: synthetic androgen R1881 at 10 nM for 24 h
Read-out: 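Firefly light from an androgen-responsive reporter and Renilla control light per well, raw and unnormalised, for each of two replicates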
Scale: firefly reporter light: higher = more light from androgen-responsive reporter; Renilla control light: higher = more constitutive control signal (cell number, transfection)
Call rule: 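Across duplicate plates, a knock-down whose log firefly/Renilla ratio shifted a set fold down or up from the GFP/LacZ control mean was a hit; the downward cut appears as both 1.5 and 3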
Calls: active = hit: reporter lowered or raised; inactive = no hit
The screen tested about 24,000 reagents; this is a random part of those that have a named target and a result. Over the whole deposit, 246 (1%) were called active. 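Plates not normalised; calls are printed but the firefly/Renilla ratio behind them is not deposited; fold cut for lowering reported inconsistently.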 Raw values vary from plate to plate and are shown uncorrected. Reagents against one gene are numbered here. Not stated in the record: the amount of reagent.

no.	gene	dsRNA no.	firefly reporter light, replicate 1	firefly reporter light, replicate 2	Renilla control light, replicate 1	Renilla control light, replicate 2	call
1	Dlc90F	1	1.48e5	1.26e5	9.96e5	8.30e5	inactive
2	CalpC	1	5.43e5	4.59e5	3.42e6	2.51e6	inactive
3	CG30203	1	2.37e5	1.61e5	1.33e6	1.23e6	inactive
4	ND-51L1	1	77244	75125	1.27e6	1.27e6	inactive
5	Kots	1	40777	48950	3.10e5	4.43e5	inactive
6	Dpy-30L1	1	1.32e5	1.33e5	1.37e6	1.78e6	inactive
7	Dpy-30L1	2	1.23e6	1.18e6	1.62e6	1.52e6	inactive
8	CG31055	1	2.12e5	1.77e5	3.46e5	4.50e5	inactive
9	Cpr67B	1	8.31e5	4.40e5	1.12e6	8.98e5	inactive
10	CG1647	1	50984	47499	4.51e5	3.79e5	inactive

Copied from the entries so far, 3 entries:
no.	gene	dsRNA no.	firefly reporter light, replicate 1	firefly reporter light, replicate 2	Renilla control light, replicate 1	Renilla control light, replicate 2	call
6	Dpy-30L1	1	1.32e5	1.33e5	1.37e6	1.78e6	inactive
7	Dpy-30L1	2	1.23e6	1.18e6	1.62e6	1.52e6	inactive
8	CG31055	1	2.12e5	1.77e5	3.46e5	4.50e5	inactive

The list goes on.
no.	gene	dsRNA no.	firefly reporter light, replicate 1	firefly reporter light, replicate 2	Renilla control light, replicate 1	Renilla control light, replicate 2	call
11	Vps51	1	1.06e6	1.25e5	1.04e6	2.74e5	inactive
12	Prx6c	1	3.40e5	2.30e5	1.73e6	1.65e6	inactive
13	Prx6c	2	3.38e5	4.19e5	1.34e6	1.21e6	inactive
14	MED8	1	99044	1.52e5	1.04e6	1.40e6	inactive
15	SP2353	1	10969	10123	3.67e5	3.67e5	active
16	SP2353	2	1.99e5	2.70e5	6.73e5	5.98e5	inactive
17	CG15578	1	3.35e5	3.66e5	2.70e6	2.71e6	inactive
18	CG18765	1	1.87e5	1.58e5	2.77e6	2.60e6	inactive
19	Vha100-3	1	1.54e5	1.40e5	4.05e5	4.52e5	inactive
20	Tpi	1	36755	39951	3.66e5	4.07e5	inactive
21	CG31635	1	82230	93239	1.06e6	1.30e6	inactive
22	inaE	1	6.87e5	6.99e5	3.34e6	3.83e6	inactive
23	inaE	2	99884	98720	4.56e5	5.47e5	inactive
24	inaE	3	5.84e5	8.14e5	8.30e5	1.40e6	inactive
25	inaE	4	5.19e5	5.54e5	9.67e5	5.54e5	inactive
